PubChem BioAssay AID504786 | Drosophila RNAi Screening Center – 2011

Assay: 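Knock-downs reducing HIF reporter induction by the iron chelator DFO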 (primary screen)
Cells: Drosophila S2 cells with a stable HIF luciferase reporter
Reagents: long dsRNA against Drosophila genes, about 0.2 µg dsRNA per well of a 384-well plate
Time to read-out: three days of knock-down, then 20 h of DFO before reading
Conditions: desferrioxamine (DFO) at 100 µM, an iron chelator that mimics hypoxia, for 20 h
Measured: 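Firefly luciferase driven by the mouse ldh-a hypoxia-response element, measured after 20 h of 100 µM DFO; z-scores per plate, higher means more signal lost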
Reading the numbers: z-score: higher = stronger loss of HIF reporter signal
The deposit covers about 21,000 reagents; shown is a random part of those that have a named target and a result. 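Primary screen; positive scores mean lost reporter signal, so the sign may be inverted from the usual convention.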 The numbers tell different reagents against one gene apart. Names joined by + are all predicted targets of the reagent. No sequences are given here.

Target gene	reagent no.	z-score, replicate 1	z-score, replicate 2	z-score, replicate 3	z-score, replicate 4
CG5174	1	-0.2	-0.1		
CG32187	1	-0.2	0.1		
DCTN5-p25 (Dynactin 5, p25 subunit)	1	-0.2	0.1		
CG18809	1	0.5	0.1		
CG6793	1	-0.3	-0.5		
msd5 (mitotic spindle density 5)	1	-0.3	-0.1		
CG9447	1	-0.2	-0.2		
Datp (Diadenosine tetraphosphatase)	1	-0.3	-0.3		
CrebA (Cyclic-AMP response element binding protein A)	1	-0.4	-0.6		
promL (prominin-like)	1	-0.4	-0.2		
CG14650	1	-0.2	-0.3		
Alg12 (Alg12 alpha-1,6-mannosyltransferase)	1	-0.3	-0.4		
CG7806	1	-0.3	0.3		
CG42562	1	-0.1	-0.3		
CG33467	1	-0.2	-0.2		
Cfp1 (CXXC finger protein 1)	1	-0.3	0		
St4 (Sulfotransferase 4)	1	-0.3	-0.3		
Vang (Van Gogh)	1	-0.3	-0.2		
mRpS33 (mitochondrial ribosomal protein S33)	1	1.1	1.2		
CG34457	1	-0.3	-0.3		
Oscillin	1	-0.2	-0.1		
Der-2 (Derlin-2)	1	-0.5	-0.3		
NKCC (sodium potassium chloride cotransporter)	1	-0.4	-0.4		
NKCC (sodium potassium chloride cotransporter)	2	0.1	0.1		
sfl (sulfateless)	1	0.5	1.5		
sfl (sulfateless)	2	-0.1	1.1		
Tsp33B (Tetraspanin 33B)	1	-0.1	-0.2		
CG5897	1	-0.2	-0.1		
CG42697	1	-1	-0.3		
mRpL35 (mitochondrial ribosomal protein L35)	1	1.5	1.1		
Bsg (Basigin)	1	-0.3	0.4		
Bsg (Basigin)	2	-1.4	-1.2		
sei (seizure)	1	-0.2	-0.8		
Agpat2 (1-Acylglycerol-3-phosphate O-acyltransferase 2)	1	-0.1	0.5		
CG5021	1	-0.3	-0.2		
Atg13 (Autophagy-related 13)	1	-0.4	0.6		
CG13506	1	-0.3	-0.2		
CG17195	1	-0.3	-0.2		
CG7841	1	-0.3	-0.5		
CG13877 + pyx	1	-0.4	-0.3		
comr (cookie monster)	1	-0.2	-0.5		
Naa15-16 (N(alpha)-acetyltransferase 15/16)	1	-1.3	-1.2	-0.3	-0.5
rst (roughest)	1	-0.4	-0.2		
rst (roughest)	2	-0.2	-0.8		
Magi	1	-0.2	-0.3		
Magi	2	0.2	0.2		
Fas3 (Fasciclin 3)	1	0.1	0.3		
Fas3 (Fasciclin 3)	2	-0.1	-0.2		
CG14314	1	-1	-0.1		
Crz (Corazonin)	1	-0.4	-0.3		
CG13308	1	-0.2	0.1		
CG34434	1	0.1	-0.1		
CG42233	1	-0.4	-0.6		
CG42233	2	-0.4	-0.7		
Vps60 (Vacuolar protein sorting 60)	1	-0.1	-0.7		
CG5024	1	-0.2	-0.8		
CG11570	1	-0.2	-0.2		
CG14982	1	3.2	0.9		
Fa2h (Fatty acid 2-hydroxylase)	1	-0.2	-0.5		
Fa2h (Fatty acid 2-hydroxylase)	2	-0.3	-0.5		
insb (insensible)	1	-0.3	-0.6		
Tsp29Fa (Tetraspanin 29Fa)	1	-0.2	-0.3		
caz (cabeza)	1	-0.2	-0.5	-0.8	-0.4
CG30345	1	0	-0.1		
cona (corona)	1	-1	-0.5		
Prosbeta4R2 (Proteasome beta4 subunit-related 2)	1	-0.3	-0.2		
Mipp2 (Multiple inositol polyphosphate phosphatase 2)	1	-0.3	-0.5		
CG31189	1	-0.5	-0.2		
CG11755	1	-0.3	-0.2		
Sec15 (Secretory 15)	1	0.3	-0.5		
PIG-N (Phosphatidylinositol glycan anchor biosynthesis class N)	1	0	0.2		
CG15529	1	0.2	0.7		
CG31191	1	-0.4	-0.2		
CG31191	2	0.4	-0.4		
CG31191	3	1.1	-0.2		
Ank2 (Ankyrin 2)	1	0	0.2		
Ank2 (Ankyrin 2)	2	-0.3	-0.3		
Ank2 (Ankyrin 2)	3	-0.1	0.2		
Ank2 (Ankyrin 2)	4	-0.2	0		
Tsp66A + CG42661 + CG42660	1	-0.1	0.3		
nw (narrow)	1	-0.3	-0.2		
nw (narrow)	2	0.1	-0.1		
CG13050	1	-0.1	-0.2		

5 entries from above, set out differently.
Target gene,reagent no.,"z-score, replicate 1","z-score, replicate 2","z-score, replicate 3","z-score, replicate 4"
Naa15-16 (N(alpha)-acetyltransferase 15/16),1,-1.3,-1.2,-0.3,-0.5
rst (roughest),1,-0.4,-0.2,,
rst (roughest),2,-0.2,-0.8,,
Magi,1,-0.2,-0.3,,
Magi,2,0.2,0.2,,
